This is an account of results in publication PMC12608182.

The exact form of at least one protein or probe is not confirmed. No signal at the amounts used counts as a negative.

The test system of this data set is GST-SlMADS48 (Solanum lycopersicum (tomato)). As to the kind of experiment: EMSA. The note with it: EMSA with purified GST-SlMADS48 and 5'-biotin probes, PAGE, chemiluminescent detection; pH and temperature not stated; recombinant protein; protein details: N-terminal GST (pGEX4T-1); label: 5'-biotin on both strands.
Turning to “ATGAACAACCCTATTTATAGAGTGAGAAAT (double strand) [SlTM3 promoter CArG M1 probe]”, the binding result was “binds”.
In the case of “ATTAAAGGGTATATACTTTAATTTGGATTTAAGTGTATTT (double strand) [SlcycD6;1 promoter CArG M2 probe]” it was “binds”.
The same measure for “ATTTTGAATACTATAAATAGTGATGTAGTT (double strand) [SlTM3 promoter CArG M2 probe]”: “binds”; for “CTATGAGAGGCTTAATATAGTAGTATGTTG (double strand) [SlTM3 promoter CArG M3 probe]”: “no binding”.
For the sequence “TTCAAATGCAAATTTCTTATTAAAGTTTGAATTTTAAAAA (double strand) [SlIAA29 promoter CArG M5 probe]”, the binding result was “binds”.
